# Assay results taken from PubChem BioAssay AID1508600 (Functional Genomics Laboratory (NCATS/FGL), 2020).
# Among all 53,000 sequences or so, about 3,700 (7%) were called active.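 How the source made its calls: active means gene knockdowns whose robust z-score for IL-1 alpha signal is at least 2 or at most -2, so actives lie on both sides; inactive means the rest.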 The list shows a part of the results.
# Test: Components of the Cytosolic LPS Sensing Pathway: Gene Identification via Genome-wide siRNA Screen;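 further: robust z of the log signal after scaling to non-targeting control siRNA wells of the plate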
# Conditions: RAW264.7 macrophages, IL-1a HTRF, actives lie on both sides, screened at 100 nM (by protocol), cells primed 5 h with Pam3CSK4 first
# Method in brief: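 Supernatant IL-1a by HTRF from RAW264.7 cells primed with Pam3CSK4 (5 hours) and transfected with LipidA (24 hour) after 48h siRNA knockdown at 100 nM; cell viability checked with CellTiter-Glo.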
row,Sequence,z-score
1,GGAGCUCGUGUAAAUGCCATT against Ankrd44,inactive: 1.16
2,GGCUUAUAUUCAACCAUGGTT against Elavl4,inactive: -0.776
3,GGAGGUUAAGAGAUCUCCATT against Katnbl1,inactive: 0.55
4,GGAGACCCUGGUGAGAAGATT against Emid1,inactive: 0.26
5,GUUUCCAUAUCCUUUAAGUTT against Lilr4b,inactive: 1.23
6,GGGACUUCAUGCUAAGUUUTT against Smarcd3,inactive: 1.38
7,CCACUCUGUUAUCACCGAGTT against Olfr774,inactive: 0.431
8,GGAAUCUCCUAGAAAUAUUTT against Cep95,inactive: 0.91
9,GGACUCAUCAGAGGAUAAATT against C130026I21Rik,inactive: -1.35
10,GGAAUCUAGACUUAAUUCUTT against Trp53inp1,inactive: 0.422
11,CGACUCCAAUCUACAGGUUTT against Ccdc130,inactive: 0.693
12,GGAGAUCAUGCUCAAGAACTT against Dgke,inactive: 0.176
13,CCACAAUUUGAGAACAUUUTT against Tyrp1,inactive: -0.539
14,GCAAAGUUGGUGACGUGAUTT against Pole2,active: -2.15
15,GGGUAACAUUAGGAGAGUUTT against N4bp2l1,inactive: 0.719
16,GAAUUCCAGCUUAUUCCUUTT against Klra15,inactive: 0.6
17,GGCAGCCAAGAGAUUGAAUTT against Suclg2,inactive: 1.09
18,GAGAUGUCCGAAAUGCCAATT against Smco4,inactive: 1.73
19,GCUGUGUACUCUGCCCUGATT against Olfr346,inactive: -0.0275
20,GGUCAUGCACACUCGAAAUTT against Mrpl54,inactive: 0.831
21,GGAAAGUUUGAAGAUGUGUTT against Mknk1,inactive: -0.643
22,CGAUCGUAUUCAAUGGAAATT against Rims2,inactive: -0.998

row,Sequence,z-score
1,GCUUUGAUAGAUACUUCUGTT against Chrm2,inactive: -0.471
2,GGUGAUAUUGUUGUACUUATT against Olfr1058,inactive: -0.624
3,CCCUUUAACAGCAAUUGUATT against Pramel4,inactive: 0.383
4,GGUUGUUUGACCAACAGCUTT against Inpp5d,inactive: -1.51
5,GGUGCUAAAAAUGAGCCUUTT against Urm1,inactive: -1.66
6,GCAUUUCAAUCGCACGUUUTT against Gal3st2,inactive: -0.893
7,CCGUAGAAGGGUUCAACACTT against Fam151a,inactive: 0.613
8,GCUAAGACACCGAGAGGAATT against Rassf4,inactive: 1.67
9,GGUUUUGUUCAGAUCAGAUTT against Gemin6,inactive: 0.346
10,GCUACUUUGUGAAGAAACCTT against Cntrob,inactive: -0.832
11,GCACACCUCUAUCCUUUUGTT against Pcsk9,inactive: -1.59
12,GGACAAGUCGAAGAGUGAGTT against Ing1,active: -2.26
13,CCUAUAUUGGAGAGAUAUUTT against Serpinb6a,inactive: 0.0211
14,CCAUGCCAAGUCUCUACACTT against Tmem150a,inactive: 0.0206
15,GGAAUAGGUUGGAUCACAATT against Prxl2c,inactive: 0.258
16,GGGAUUUCUUUUUCUAGUUTT against Fgd5,inactive: -1.62
17,GGCCUGGGAAGUGAACAAATT against Faah,inactive: -0.721
18,GGAGCUUUCCAUAUAUAAGTT against Sgcb,inactive: 0.175
19,GCUUCAAUGUAUUUUUUGCTT against Olfr1459,inactive: -1.83
20,GCAUCAUUACUGGAUUCCUTT against Olfr859,inactive: -0.521
21,GGUGCUAAUGACCUUUGAATT against Dbp,inactive: -1.5
22,GCUGUCACCUACAGAAAAATT against Msantd1,inactive: -0.748

# Copied from the listing for reference:
row,Sequence,z-score
10,GCUACUUUGUGAAGAAACCTT against Cntrob,inactive: -0.832
11,GCACACCUCUAUCCUUUUGTT against Pcsk9,inactive: -1.59

# The list continues:

row,Sequence,z-score
1,GCUCGAGAUCGAAACAUACTT against Tmed5,inactive: -1.13
2,CCAUAAUUCCAGAACAUACTT against Hspg2,inactive: 0.961
3,GGAUUUUAAAGUCAUGUCATT against D130040H23Rik,inactive: -1.79
4,GGAUGAAGAGGUUGGAGAUTT against Cct3,inactive: -0.234
5,GCCUAAGCUUGUAUGUUUGTT against Anapc2,inactive: -0.119
6,GGUUCUUUGUUUCUUUCGUTT against Dcaf12l2,inactive: -0.954
7,GGAAUCUGUCAUGUGAAUATT against Slc1a5,inactive: -0.0766
8,GGUCACCAGUACCUAUGGATT against Bricd5,active: -2.17
9,CCCUAGAUGAGAAUCAUAGTT against Kdm5c,inactive: 0.52
10,GGUGGUAUGCAAGAUUACATT against Cpd,inactive: 0.922
11,CGUGGCUUCUUUCCGCUCUTT against Mtmr4,inactive: -0.55
12,GCUACAGGUCAAUGUCGUGTT against Tcte2,inactive: -1.61
13,GCUGAUACGAGGAACAGAGTT against Fmr1nb,inactive: 0.728
14,GCCAACGUAUUUGUGGCAUTT against Olfr1183,inactive: 0.983
15,GGAUGAACCUUCUGACCAATT against Klk1b4,inactive: 1.63
16,GGCUUUAAUGAAAUUAUGGTT against Asap2,inactive: 1.4
17,GGGAGUCCCUGUGCUUAUATT against Arl4a,inactive: 0.458
18,GCUAGAAUGUCUCAAUACUTT against Spdl1,inactive: -0.508
19,GCAGCAUGGAGUUCACUAUTT against Tapbp,inactive: -0.25
20,CCUUUUUGAUGCCAUCGUUTT against Dclk3,inactive: 0.844
21,GGUUCCCAAUACUAUCAGGTT against Kif26b,inactive: 0.209
22,GGUGGUGCUUAAGUCCAUCTT against Cacna1b,inactive: 0.969

row,Sequence,z-score
1,GGAUCUUAAGUCCUAACAUTT against Tacc3,active: -2.37
2,GGUUUCCAGUAAGAUCUUATT against Mdn1,active: 2.21
3,CCUGUGACGAAUUUGAGCGTT against Il13ra1,inactive: -0.122
4,GUUUGCCAGAACUCUGAAATT against Lyz2,inactive: -0.303
5,GCCGUAUCACCCUAAACUATT against Pxylp1,active: 2.05
6,CCCUGCUCUCACUUGUUUATT against Olfr643,inactive: -0.446
7,GGAAUAUGAAGACAUAGCUTT against Ogt,inactive: -0.546
8,GGUGUUUGGGUACCAGUCUTT against Cyp8b1,inactive: -1.03
9,GGAACAACAUCCUAUGCUCTT against Ranbp17,inactive: 0.759
10,GGCCAGUGGAGGAAUAUGATT against 1300017J02Rik,inactive: -0.383
11,GGACUUCAGUGAGGAUCAATT against Scg5,inactive: 0.866
12,GCCAGAUCCCUGGAAUGUATT against Ece2,inactive: -0.632
13,GCUACAUUCAAAUAUGACCTT against Cd207,inactive: 0.996
14,GCCAUAUGAUAAUAUAGAGTT against Gbp6,inactive: -0.574
15,GGUCAUAAGAUUAGGGUCATT against Nmnat3,inactive: -1.61
16,GGCACCAAAAUCAAUGAAATT against Pcbp3,inactive: -0.182
17,GGAUUGUCAUUGACAAAACTT against Slc31a2,inactive: -0.36
18,GGAGCUAGCAGAGAUAACCTT against Ube2e3,inactive: 0.0606
19,CCAGUACUCGUUUCACUUATT against Mrpl15,inactive: 0.374
20,GGUGCAGAGUUACACGUGCTT against H2-T10,inactive: 1.07
21,GGAAGUCCAAGAGAGGUUGTT against Dxo,inactive: -0.424
22,CGAAUAGGGAGCCAUAAGATT against Tubb6,inactive: 1.66

# 4 entries from above in a different format.
row	Sequence	z-score
14	GCCAUAUGAUAAUAUAGAGTT against Gbp6	inactive: -0.574
15	GGUCAUAAGAUUAGGGUCATT against Nmnat3	inactive: -1.61
16	GGCACCAAAAUCAAUGAAATT against Pcbp3	inactive: -0.182
19	CCAGUACUCGUUUCACUUATT against Mrpl15	inactive: 0.374

# Carrying on:

row,Sequence,z-score
1,GCCAUAUCAACCGUAUUGGTT against Lzts3,active: -2.58
2,CGGAUCAUUGCCAAUAUCATT against Adam33,inactive: -0.48
3,GCUAUAACCUCACCGAGAATT against Tedc2,active: 2.09
4,GGCCUCUCCACUUGUGAAGTT against Ghitm,inactive: 1.11
5,AAGUCUGAUUGAAGAGGAATT against Gnrh1,inactive: 1.26
6,CCUUACCUGCCCUAGCAAUTT against Acsbg1,inactive: -1.13
7,CCAUUAAUAUCUCAUGUGATT against Fshr,inactive: -0.323
8,GGUGAAGUCACUAAUCUUUTT against Prpf19,inactive: 1.12
9,GGAACUGGUGAUAGGAGUCTT against Olfr513,inactive: -1.19
10,GGAGAAAAUCAACAAGAUCTT against Ppp2r2c,inactive: -0.437
11,GGUGCUUUCCACGAUCAACTT against Tbl2,inactive: -0.404
12,GGAACAGGACUUUUGAUAATT against Pan3,inactive: -1.08
13,GGGAGAGCAAAACUAUUUCTT against Padi6,inactive: 0.429
14,GCAAGAAAAGGUGCUAUCUTT against Med4,inactive: -0.314
15,GAUUGUUGCACGGCUGAAGTT against Cxcl12,inactive: 1.68
16,CCAAGAUCACUCCUGAAAGTT against Gm9991,inactive: -0.386
17,GGCAGUCAAUAGUGGCCUGTT against Bcor,inactive: 1.12
18,GCUCGCACAUUUGACUUGGTT against Wdr70,inactive: 0.807
19,GCUUAAGUGUGAUACAGUGTT against Rars2,active: 2.45
